No constants are given. Whether binding was seen depends on the method and setting. In cells and extracts the contact can be indirect. Some binding calls cover weakened binding; strength is not graded here. For part of these data: Where a sequence is shown, tags or fusion partners need not be part of it.
What was measured:
[1] = target: T1, Recombinant human Robo1 encoding the extracellular five Ig-like domains fused with the Fc domains of human IgG1 (human) (UniProt Q9Y6N7+P01857); assay: Protein A bead pulldown, immunoblot for His
[2] = target: T1, Recombinant human Robo1 encoding the extracellular five Ig-like domains fused with the Fc domains of human IgG1 (human); assay: Protein A bead pulldown with Robo1-Fc, immunoblot (FIG. 15F)
[3] = target: T2, Extracellular Ig4 domain of Robo1 fused with GST (human) (UniProt Q9Y6N7); assay: glutathione-Sepharose pulldown, immunoblot
T2 sequence (looked up): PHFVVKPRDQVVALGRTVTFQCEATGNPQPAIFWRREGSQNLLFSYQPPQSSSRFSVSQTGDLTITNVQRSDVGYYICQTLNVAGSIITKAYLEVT

The chains behind the UniProt entries cited, without tags or fusion partners. Where a name states a change or a piece, a line headed by the entry shows the natural chain unless it says otherwise.
UniProt Q2MKA7: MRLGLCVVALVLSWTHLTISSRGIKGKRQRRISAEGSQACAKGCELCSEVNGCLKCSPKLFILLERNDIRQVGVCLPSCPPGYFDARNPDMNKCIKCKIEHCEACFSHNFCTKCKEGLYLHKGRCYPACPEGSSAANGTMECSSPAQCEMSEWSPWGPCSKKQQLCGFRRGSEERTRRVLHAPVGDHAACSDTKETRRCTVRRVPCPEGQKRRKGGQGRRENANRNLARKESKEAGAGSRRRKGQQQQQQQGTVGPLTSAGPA

[4] = target: T3, Extracellular Ig3 domain of Robo1 fused with GST (human) (UniProt Q9Y6N7); assay: glutathione-Sepharose pulldown, immunoblot
T3 sequence (looked up): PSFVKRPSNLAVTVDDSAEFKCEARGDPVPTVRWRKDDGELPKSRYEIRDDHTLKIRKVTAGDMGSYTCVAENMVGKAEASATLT

[5] = target: T1, Recombinant human Robo1 encoding the extracellular five Ig-like domains fused with the Fc domains of human IgG1 (human); assay: Protein A bead pulldown with Robo1-Fc, rSlit2 and/or rRspo1, immunoblot (FIG. 18B)
[6] = target: T2, Extracellular Ig4 domain of Robo1 fused with GST (human); assay: glutathione-Sepharose pulldown with GST-Ig1-5, immunoblot (FIG. 15G)
[7] = target: T3, Extracellular Ig3 domain of Robo1 fused with GST (human); assay: as above
[8] = target: T1, Recombinant human Robo1 encoding the extracellular five Ig-like domains fused with the Fc domains of human IgG1 (human); assay: Protein A bead pulldown with Robo1-Fc, immunoblot (FIG. 15E)

Measured: binding

Amino-terminal segment of Rspo1 including two furin-like cysteine-rich domains, fused with 6-His tag (from UniProt Q2MKA7 21-146) (ligand)
binds: [1] | [2]

Recombinant human Rspo1 fused with 6-His (His) tag expressed in Sf9 insect cells (from UniProt Q2MKA7 21-263) (ligand)
not listed: [2]
binds: all other assays above
